# Experimental data reported in the supplement of paper PMC6411743.
# Amino acid sequences for entries named in this document (tags omitted). A change or cut given only in a name is not applied to a line headed by its entry.
# UniProt P07384: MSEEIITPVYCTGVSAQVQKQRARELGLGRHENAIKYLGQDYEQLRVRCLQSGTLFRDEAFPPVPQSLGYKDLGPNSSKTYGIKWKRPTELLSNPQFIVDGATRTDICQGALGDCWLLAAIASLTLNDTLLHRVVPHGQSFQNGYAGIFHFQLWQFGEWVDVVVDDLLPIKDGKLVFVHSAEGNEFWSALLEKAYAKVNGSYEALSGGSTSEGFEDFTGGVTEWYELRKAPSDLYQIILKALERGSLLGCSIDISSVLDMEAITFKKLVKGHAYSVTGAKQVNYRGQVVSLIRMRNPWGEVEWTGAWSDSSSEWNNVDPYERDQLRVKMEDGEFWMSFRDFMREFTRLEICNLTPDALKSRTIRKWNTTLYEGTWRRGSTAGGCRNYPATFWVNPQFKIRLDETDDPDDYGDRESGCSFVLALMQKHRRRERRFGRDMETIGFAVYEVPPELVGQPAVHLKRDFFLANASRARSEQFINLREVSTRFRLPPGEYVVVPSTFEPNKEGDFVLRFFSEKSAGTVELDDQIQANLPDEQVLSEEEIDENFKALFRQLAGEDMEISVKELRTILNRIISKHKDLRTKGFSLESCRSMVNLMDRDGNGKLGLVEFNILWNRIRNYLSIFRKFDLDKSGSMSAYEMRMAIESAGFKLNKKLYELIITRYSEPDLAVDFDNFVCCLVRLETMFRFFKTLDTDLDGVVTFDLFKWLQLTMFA
# UniProt P12544: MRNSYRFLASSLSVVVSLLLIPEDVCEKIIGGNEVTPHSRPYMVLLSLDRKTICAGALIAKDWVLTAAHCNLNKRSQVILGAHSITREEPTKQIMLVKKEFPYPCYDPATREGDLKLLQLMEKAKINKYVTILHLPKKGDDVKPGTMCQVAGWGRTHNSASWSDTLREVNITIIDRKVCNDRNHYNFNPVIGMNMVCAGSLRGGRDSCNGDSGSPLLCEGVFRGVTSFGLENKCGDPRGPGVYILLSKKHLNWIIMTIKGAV
# UniProt P08559, whole entry: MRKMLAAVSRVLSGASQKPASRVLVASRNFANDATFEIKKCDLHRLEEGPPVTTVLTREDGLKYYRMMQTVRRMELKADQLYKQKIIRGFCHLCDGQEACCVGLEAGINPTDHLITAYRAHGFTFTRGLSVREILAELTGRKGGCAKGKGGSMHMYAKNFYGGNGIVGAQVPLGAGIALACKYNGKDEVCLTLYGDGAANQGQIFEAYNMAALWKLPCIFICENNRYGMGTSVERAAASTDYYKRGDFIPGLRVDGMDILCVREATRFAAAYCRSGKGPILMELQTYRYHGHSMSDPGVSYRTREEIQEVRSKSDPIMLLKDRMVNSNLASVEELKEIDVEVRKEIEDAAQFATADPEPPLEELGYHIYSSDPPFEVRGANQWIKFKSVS
# UniProt P10914: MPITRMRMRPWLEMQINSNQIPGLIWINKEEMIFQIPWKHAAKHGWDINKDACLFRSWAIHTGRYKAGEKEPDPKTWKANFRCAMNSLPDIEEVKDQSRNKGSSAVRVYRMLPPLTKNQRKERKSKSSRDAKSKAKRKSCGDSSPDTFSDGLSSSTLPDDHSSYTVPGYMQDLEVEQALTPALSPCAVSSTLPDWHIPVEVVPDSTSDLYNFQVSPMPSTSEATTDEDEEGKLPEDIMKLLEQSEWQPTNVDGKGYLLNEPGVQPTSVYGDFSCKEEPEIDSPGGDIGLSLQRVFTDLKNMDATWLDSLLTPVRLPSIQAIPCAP
# UniProt P16083: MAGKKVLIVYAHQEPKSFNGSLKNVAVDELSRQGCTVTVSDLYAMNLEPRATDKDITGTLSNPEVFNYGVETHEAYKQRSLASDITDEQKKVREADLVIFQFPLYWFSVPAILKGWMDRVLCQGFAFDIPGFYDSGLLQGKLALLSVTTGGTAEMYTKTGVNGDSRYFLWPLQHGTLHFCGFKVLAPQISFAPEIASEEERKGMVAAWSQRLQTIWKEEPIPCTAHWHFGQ
# UniProt P13073, whole entry: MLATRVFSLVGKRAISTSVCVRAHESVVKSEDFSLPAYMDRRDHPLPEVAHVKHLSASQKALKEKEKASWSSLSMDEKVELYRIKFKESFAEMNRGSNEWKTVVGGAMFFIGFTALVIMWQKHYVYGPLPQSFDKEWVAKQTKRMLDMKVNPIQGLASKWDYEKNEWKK
# UniProt O95864: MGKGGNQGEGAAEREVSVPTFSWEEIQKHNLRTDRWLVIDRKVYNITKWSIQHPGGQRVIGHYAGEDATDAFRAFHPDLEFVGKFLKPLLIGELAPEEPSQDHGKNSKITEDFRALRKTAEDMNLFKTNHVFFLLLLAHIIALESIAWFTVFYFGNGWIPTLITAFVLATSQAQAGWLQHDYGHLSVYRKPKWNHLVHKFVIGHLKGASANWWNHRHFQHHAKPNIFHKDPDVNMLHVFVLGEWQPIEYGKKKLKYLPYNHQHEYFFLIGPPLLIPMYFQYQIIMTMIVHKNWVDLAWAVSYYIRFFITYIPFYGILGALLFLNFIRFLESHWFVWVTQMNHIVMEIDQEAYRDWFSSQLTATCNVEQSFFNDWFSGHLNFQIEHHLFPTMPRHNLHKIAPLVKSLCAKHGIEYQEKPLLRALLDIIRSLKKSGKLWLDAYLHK
# UniProt P05165: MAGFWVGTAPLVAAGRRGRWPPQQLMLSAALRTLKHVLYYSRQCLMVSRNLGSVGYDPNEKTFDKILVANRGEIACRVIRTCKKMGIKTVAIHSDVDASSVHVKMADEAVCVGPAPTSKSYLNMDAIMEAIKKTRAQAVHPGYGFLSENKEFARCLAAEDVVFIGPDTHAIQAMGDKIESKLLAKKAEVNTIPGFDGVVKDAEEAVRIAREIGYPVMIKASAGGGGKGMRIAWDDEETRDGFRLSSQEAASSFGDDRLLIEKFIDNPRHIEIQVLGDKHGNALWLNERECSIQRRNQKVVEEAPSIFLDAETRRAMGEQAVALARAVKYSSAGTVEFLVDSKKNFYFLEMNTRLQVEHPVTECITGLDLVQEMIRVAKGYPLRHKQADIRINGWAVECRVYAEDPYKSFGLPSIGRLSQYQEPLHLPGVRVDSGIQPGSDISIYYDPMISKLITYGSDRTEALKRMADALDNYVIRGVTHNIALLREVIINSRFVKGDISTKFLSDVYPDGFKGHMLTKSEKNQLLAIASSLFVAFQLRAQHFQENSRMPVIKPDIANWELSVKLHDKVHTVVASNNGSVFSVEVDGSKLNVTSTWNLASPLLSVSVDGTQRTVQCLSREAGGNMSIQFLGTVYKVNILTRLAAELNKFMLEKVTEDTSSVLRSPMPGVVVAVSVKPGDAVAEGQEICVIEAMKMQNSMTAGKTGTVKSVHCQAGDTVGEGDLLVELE
# UniProt P13612, whole entry: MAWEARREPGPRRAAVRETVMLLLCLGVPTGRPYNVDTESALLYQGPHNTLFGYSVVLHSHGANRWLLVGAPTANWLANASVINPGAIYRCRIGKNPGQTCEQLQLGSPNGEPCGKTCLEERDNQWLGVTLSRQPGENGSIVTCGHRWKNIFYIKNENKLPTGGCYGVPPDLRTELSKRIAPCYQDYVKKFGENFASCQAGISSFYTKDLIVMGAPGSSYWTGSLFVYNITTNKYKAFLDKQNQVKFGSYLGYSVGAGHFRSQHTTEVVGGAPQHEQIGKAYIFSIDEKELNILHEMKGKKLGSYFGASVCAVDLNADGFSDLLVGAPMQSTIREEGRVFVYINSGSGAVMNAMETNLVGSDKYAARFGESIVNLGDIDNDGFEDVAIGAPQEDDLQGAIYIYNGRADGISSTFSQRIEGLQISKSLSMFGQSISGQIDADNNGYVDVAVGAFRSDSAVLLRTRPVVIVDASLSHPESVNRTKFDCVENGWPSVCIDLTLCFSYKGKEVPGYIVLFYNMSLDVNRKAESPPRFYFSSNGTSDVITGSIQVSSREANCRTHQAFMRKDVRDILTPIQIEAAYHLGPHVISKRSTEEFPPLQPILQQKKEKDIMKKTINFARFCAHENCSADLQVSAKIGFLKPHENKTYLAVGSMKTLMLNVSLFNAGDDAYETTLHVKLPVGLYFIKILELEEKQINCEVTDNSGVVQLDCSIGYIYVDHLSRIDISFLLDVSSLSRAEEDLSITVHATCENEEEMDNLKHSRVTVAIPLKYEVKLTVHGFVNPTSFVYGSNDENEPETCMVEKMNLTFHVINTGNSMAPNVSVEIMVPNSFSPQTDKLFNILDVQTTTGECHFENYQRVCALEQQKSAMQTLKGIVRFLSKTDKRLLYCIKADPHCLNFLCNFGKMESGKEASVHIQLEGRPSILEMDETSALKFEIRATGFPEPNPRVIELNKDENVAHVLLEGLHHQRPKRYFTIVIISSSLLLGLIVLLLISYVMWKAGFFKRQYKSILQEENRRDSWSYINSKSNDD
# UniProt P11908: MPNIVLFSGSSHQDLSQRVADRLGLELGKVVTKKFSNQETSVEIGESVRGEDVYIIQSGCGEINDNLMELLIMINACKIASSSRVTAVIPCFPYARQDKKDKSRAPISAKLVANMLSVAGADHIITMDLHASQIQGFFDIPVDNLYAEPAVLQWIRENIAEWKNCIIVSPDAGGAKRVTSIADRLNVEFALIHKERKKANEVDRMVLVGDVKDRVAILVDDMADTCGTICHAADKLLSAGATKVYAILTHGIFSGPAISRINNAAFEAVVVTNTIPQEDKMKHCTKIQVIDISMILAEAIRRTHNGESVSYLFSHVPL
# UniProt P15374: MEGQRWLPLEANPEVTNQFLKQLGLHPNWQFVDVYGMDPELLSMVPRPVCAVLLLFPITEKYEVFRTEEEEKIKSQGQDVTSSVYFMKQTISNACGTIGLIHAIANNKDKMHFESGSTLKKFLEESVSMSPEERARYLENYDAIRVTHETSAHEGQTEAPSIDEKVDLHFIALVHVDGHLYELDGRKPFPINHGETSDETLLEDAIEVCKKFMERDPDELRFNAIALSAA
# UniProt P15927: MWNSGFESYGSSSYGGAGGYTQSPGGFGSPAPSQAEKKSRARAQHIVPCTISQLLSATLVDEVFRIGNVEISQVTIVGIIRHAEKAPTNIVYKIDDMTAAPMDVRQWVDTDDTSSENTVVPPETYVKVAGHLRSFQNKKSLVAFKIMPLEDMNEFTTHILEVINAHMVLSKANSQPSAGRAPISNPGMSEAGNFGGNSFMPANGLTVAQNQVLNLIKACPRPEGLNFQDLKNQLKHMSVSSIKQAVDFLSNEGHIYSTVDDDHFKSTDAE
# UniProt P14621: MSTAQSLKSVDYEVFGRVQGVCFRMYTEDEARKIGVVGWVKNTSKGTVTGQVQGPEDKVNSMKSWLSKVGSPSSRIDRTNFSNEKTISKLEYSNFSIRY
# UniProt P12956: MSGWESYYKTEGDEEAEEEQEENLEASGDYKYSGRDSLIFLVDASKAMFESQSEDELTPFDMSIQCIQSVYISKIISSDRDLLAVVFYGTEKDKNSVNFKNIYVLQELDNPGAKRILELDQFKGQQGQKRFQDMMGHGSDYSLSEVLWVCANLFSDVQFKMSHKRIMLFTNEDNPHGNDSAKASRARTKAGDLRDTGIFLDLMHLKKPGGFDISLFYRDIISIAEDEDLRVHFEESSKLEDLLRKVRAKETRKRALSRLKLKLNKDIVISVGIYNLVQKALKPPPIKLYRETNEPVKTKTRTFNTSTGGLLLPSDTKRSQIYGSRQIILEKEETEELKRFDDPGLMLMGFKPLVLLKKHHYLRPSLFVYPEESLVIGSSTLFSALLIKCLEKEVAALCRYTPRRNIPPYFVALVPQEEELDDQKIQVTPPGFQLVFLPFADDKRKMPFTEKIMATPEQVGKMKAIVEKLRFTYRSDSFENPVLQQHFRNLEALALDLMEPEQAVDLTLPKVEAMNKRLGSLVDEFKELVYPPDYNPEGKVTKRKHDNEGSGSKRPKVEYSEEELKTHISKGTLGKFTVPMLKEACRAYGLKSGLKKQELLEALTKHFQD
# UniProt P04066: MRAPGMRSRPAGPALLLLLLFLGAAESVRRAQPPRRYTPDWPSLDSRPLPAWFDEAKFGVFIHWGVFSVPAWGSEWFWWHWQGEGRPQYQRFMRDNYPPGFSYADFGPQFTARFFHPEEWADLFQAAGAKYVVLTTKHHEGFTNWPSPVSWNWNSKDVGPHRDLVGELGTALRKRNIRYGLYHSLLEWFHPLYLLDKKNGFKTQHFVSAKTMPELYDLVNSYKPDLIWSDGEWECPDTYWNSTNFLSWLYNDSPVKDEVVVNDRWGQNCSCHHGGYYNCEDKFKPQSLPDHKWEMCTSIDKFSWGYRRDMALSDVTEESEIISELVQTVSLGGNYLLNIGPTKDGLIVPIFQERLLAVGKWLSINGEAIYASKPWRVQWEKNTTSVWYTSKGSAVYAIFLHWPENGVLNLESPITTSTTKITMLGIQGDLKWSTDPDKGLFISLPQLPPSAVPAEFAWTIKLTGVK
# UniProt P00491: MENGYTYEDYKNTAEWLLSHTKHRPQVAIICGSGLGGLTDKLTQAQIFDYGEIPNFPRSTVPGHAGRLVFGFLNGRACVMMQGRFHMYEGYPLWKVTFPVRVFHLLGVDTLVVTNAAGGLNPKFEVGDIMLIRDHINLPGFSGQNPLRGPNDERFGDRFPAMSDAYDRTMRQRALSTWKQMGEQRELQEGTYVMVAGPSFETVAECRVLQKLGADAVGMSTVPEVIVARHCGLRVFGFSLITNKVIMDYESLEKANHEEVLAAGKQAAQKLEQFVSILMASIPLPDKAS
# ± gives the standard deviation of the averaged measurements. The entries are a selection whose mix differs from that of the whole data set. Most entries show no effect beyond the scatter of the controls.
# Compound: Nc1ncnc2c1ncn2[C@@H]1O[C@H](COP(=O)(O)OP(=O)(O)OP(=O)(O)O)[C@@H](O)[C@H]1O [adenosine triphosphate]
# Assay: NP40-soluble protein abundance relative to vehicle (solubility fold change) (ratio); higher = more soluble protein in presence of ATP
# Summary of the method: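 Values are fold changes against the detergent-processed vehicle, based on vsn-normalised intensities. Jurkat crude lysate was treated at eight concentrations from 0.1 to 10 mM (10 min at room temperature, then 3 min at 37 °C), solubilised with 0.8% NP40 and benzonase, ultracentrifuged and analysed by TMT-labelled LC-MS/MS over three independent experiments.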
Target,NP40-soluble protein abundance (concentration: 0.1mM),NP40-soluble protein abundance (concentration: 0.5mM)
ANXA5 (UniProt P08758),0.948 ± 0.038,0.927 ± 0.029
CAPN1 (UniProt P07384),1.07 ± 0.11,1.05 ± 0.08
UniProt P12544 and related entries,1.09 ± 0.1,1.08 ± 0.22
UniProt P08559 and related entries,1.03 ± 0.049,1.07 ± 0.051
UniProt P10914,0.915 ± 0.024,0.9397 ± 0.0037
UniProt P10636-6|P10636-7,0.907 ± 0.06,0.893 ± 0.073
UniProt P09525 and related entries,0.958 ± 0.021,0.95 ± 0.059
RAF1 (UniProt P04049),1.01 ± 0.07,1.29 ± 0.12
UniProt P16083 and related entries,1.04 ± 0.054,1.01 ± 0.03
UniProt P05023 and related entries,1.02 ± 0.036,1.04 ± 0.064
UBL4A (UniProt P11441),0.924 ± 0.1,0.851 ± 0.083
P4HB (UniProt P07237),0.968 ± 0.049,0.971 ± 0.054
COX4I1 (UniProt P13073),0.944 ± 0.033,0.921 ± 0.063
FADS2 (UniProt O95864),1.05 ± 0.092,1.05 ± 0.045
UniProt O95980,1.03 ± 0.11,0.97 ± 0.12
EPRS (UniProt P07814),1.02 ± 0.056,1.03 ± 0.056
HNRNPL (UniProt P14866),1.03 ± 0.05,1.09 ± 0.056
CENPB (UniProt P07199),0.998 ± 0.058,1.028 ± 0.0085
PRKAR1A (UniProt P10644),1.01 ± 0.026,0.988 ± 0.066
UMPS (UniProt P11172),1.06 ± 0.08,1.04 ± 0.065

Target,NP40-soluble protein abundance (concentration: 0.1mM),NP40-soluble protein abundance (concentration: 0.5mM)
LCP1 (UniProt P13796),1.05 ± 0.084,0.851 ± 0.1
UniProt P05165 and related entries,1.03 ± 0.033,0.997 ± 0.04
UniProt P15923-2|X6REB3 and related entries,0.955 ± 0.04,0.931 ± 0.069
UniProt P14618 and related entries,1.03 ± 0.061,1.02 ± 0.059
ASS1 (UniProt P00966),1.03 ± 0.054,1.02 ± 0.06
ESD (UniProt P10768),0.998 ± 0.091,1.02 ± 0.071
ITGA4 (UniProt P13612),0.959 ± 0.016,0.944 ± 0.046
DARS (UniProt P14868),1.04 ± 0.033,1.02 ± 0.033
UniProt P15882 and related entries,1.03 ± 0.022,0.969 ± 0.061
LATS1 (UniProt O95835),1.08 ± 0.071,1.11 ± 0.045
UniProt P11908 and related entries,0.953 ± 0.047,0.956 ± 0.051
UCHL3 (UniProt P15374),1.04 ± 0.06,1.03 ± 0.09
UniProt P15529-2|P15529-3|P15529-4|P15529-5|P15529-6|P15529-7|P15529-16,0.983 ± 0.036,0.957 ± 0.041
MYL6B (UniProt P14649),0.853 ± 0.12,0.877 ± 0.14
UROD (UniProt P06132),1.02 ± 0.026,1.01 ± 0.052
ARSB (UniProt P15848),0.916 ± 0.092,0.884 ± 0.054
RPA2 (UniProt P15927),0.987 ± 0.023,0.983 ± 0.019
UniProt O95985 and related entries,1.08 ± 0.038,0.959 ± 0.051
UniProt P06239 and related entries,1.05 ± 0.043,1.06 ± 0.016
ACYP2 (UniProt P14621),0.945 ± 0.05,0.933 ± 0.044

Target,NP40-soluble protein abundance (concentration: 0.1mM),NP40-soluble protein abundance (concentration: 0.5mM)
NCK1 (UniProt P16333),1.05 ± 0.043,1.01 ± 0.087
UniProt P04075 and related entries,1.02 ± 0.048,1.02 ± 0.051
XRCC6 (UniProt P12956),0.892 ± 0.18,1.09 ± 0.22
GNAI3 (UniProt P08754),0.978 ± 0.049,0.887 ± 0.041
PYGB (UniProt P11216),0.88 ± 0.07,0.798 ± 0.068
UniProt P13473-2|P13473 and related entries,0.909 ± 0.044,0.856 ± 0.099
UniProt P16298 and related entries,1 ± 0.033,1.01 ± 0.02
FUCA1 (UniProt P04066),0.973 ± 0.089,0.952 ± 0.068
UniProt P04150 and related entries,0.979 ± 0.051,0.88 ± 0.14
CREB1 (UniProt P16220),0.983 ± 0.033,0.9638 ± 0.0083
UniProt P16278 and related entries,0.983 ± 0.021,0.963 ± 0.064
GNAI2 (UniProt P04899),1.11 ± 0.097,1.1 ± 0.14
UniProt P10586 and related entries,0.981 ± 0.049,0.9787 ± 0.0037
HSPA5 (UniProt P11021),0.962 ± 0.031,0.971 ± 0.053
HIST1H1E (UniProt P10412),1.03 ± 0.14,1.01 ± 0.17
ALAS1 (UniProt P13196),1.04 ± 0.044,1.01 ± 0.035
UniProt O96017 and related entries,1.05 ± 0.099,1.07 ± 0.088
AKR1B1 (UniProt P15121),1.04 ± 0.12,1.04 ± 0.11
TXN (UniProt P10599),0.992 ± 0.044,0.983 ± 0.036
UniProt P00491,1 ± 0.075,0.986 ± 0.018

# As entered above:
# CREB1 (UniProt P16220) – NP40-soluble protein abundance (concentration: 0.1mM): 0.983 ± 0.033
# GNAI2 (UniProt P04899) – NP40-soluble protein abundance (concentration: 0.5mM): 1.1 ± 0.14
# UniProt P00491 – NP40-soluble protein abundance (concentration: 0.1mM): 1 ± 0.075
# UniProt P04075 and related entries – NP40-soluble protein abundance (concentration: 0.1mM): 1.02 ± 0.048
# UniProt P13473-2|P13473 and related entries – NP40-soluble protein abundance (concentration: 0.1mM): 0.909 ± 0.044
